Measurements from paper PMC7237485.

Chains of the proteins cited; added tags and fusions are not shown. Lines headed by an entry give the natural chain unless they say otherwise; changes in a name come on top.
UniProt Q969H0: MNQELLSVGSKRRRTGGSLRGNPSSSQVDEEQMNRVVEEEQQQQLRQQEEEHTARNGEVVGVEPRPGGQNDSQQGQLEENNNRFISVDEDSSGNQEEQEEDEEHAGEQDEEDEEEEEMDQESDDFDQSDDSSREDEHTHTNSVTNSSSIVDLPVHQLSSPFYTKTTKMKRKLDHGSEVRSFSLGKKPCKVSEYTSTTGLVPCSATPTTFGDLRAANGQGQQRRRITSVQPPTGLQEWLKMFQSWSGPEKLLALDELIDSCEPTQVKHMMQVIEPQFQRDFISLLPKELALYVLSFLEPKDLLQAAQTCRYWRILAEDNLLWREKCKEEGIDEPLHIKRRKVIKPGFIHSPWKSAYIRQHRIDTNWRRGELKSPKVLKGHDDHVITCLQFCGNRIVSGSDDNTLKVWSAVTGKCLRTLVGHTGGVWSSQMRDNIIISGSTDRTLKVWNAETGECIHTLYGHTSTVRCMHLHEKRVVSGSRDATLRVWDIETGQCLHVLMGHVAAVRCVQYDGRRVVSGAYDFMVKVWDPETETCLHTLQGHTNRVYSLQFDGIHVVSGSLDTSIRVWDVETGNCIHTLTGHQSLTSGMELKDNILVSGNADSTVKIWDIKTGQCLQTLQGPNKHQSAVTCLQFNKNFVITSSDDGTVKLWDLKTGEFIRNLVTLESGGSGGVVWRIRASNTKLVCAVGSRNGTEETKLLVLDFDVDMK
UniProt P01106: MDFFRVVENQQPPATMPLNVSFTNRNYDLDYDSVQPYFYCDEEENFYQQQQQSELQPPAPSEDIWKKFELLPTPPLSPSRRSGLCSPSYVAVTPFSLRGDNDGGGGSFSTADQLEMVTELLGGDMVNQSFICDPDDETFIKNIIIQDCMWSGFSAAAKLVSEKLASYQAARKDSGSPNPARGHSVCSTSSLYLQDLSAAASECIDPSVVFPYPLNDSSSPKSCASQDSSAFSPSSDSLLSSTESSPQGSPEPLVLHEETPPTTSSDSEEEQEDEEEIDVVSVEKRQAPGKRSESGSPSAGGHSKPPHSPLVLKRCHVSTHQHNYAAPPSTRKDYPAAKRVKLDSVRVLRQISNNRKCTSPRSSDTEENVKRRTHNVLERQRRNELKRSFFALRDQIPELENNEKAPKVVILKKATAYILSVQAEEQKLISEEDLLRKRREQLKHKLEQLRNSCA

Columns and labels:
[1] = target: HA-tagged FBW7ΔDF V375A/K377N (human) (UniProt Q969H0); assay: proximity ligation; U2OS cells co-expressing LT, c-Myc, cyclin E or sT with FBW7ΔDF (WT) or V375A/K377N (mut), 48 h post transfection; Duolink in situ; puncta per cell and fluorescence intensity by microscopy
[2] = target: HA-tagged WT WD40 (FBW7ΔDF) (human) (UniProt Q969H0); assay: as above

binding [1]: binds
binding [2]: binds
Substance: c-Myc (from UniProt P01106 1-454)

Results are given in words; binding and its absence hold for the method and conditions named. In cells and extracts the contact can be indirect. Binding can be weak; no strength is given.
